# The other results are listed elsewhere or left out. These are raw signals, not scaled to a control.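 In the initial screen, polymyxin B was used at a concentration that permeabilizes Salmonella's outer membrane but not its inner membrane. Maximum growth was set by DMSO wells with or without polymyxin B. Since plates varied, data were ranked per plate, and compounds giving the lowest OD600 advanced as hits.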
# System: Salmonella enterica serovar Typhimurium SL1344
# Test: bacterial growth OD600 after 18 h with compound and polymyxin B; higher = more bacterial growth (less inhibition)
# Conditions: 50 µM, Mueller-Hinton broth
Compound,bacterial growth OD600 (polymyxin B 1 µg/mL),bacterial growth OD600 (polymyxin B 0.75 µg/mL)
CCOC(=O)C1(Cc2ccc(Cl)cc2)CCN(C)CC1,0.886,–
Cc1ccccc1CNC(=O)c1cc(CC(C)c2ccccc2)no1 (stereo not given),–,0.428
O=C(NCCc1cccc(Cl)c1)C1CCC(=O)N(Cc2ccc(Cl)cc2)C1 (stereo not given),0.575,–
Cn1cc(C(=O)N2CC[C@@H](N3CCN(c4ccccc4F)CC3)[C@H](O)C2)c2ccccc21,1.05,–
O=C(NCc1cccnc1-n1cnc2ccccc21)C1CCC1,0.882,–
CCN1C(=O)CC(CC(=O)N(C)CCc2ccccc2)(c2cccc(C(F)(F)F)c2)C1=O (stereo not given),–,0.005
CCC(=O)N[C@@H]1c2ccccc2C2(CCN(C(=O)c3cc(C)n(C)n3)CC2)[C@H]1OCc1cccnc1,–,0.863
CC(C)CN1CCC(C2CCN(C(=O)C3CCOCC3)C2)CC1 (stereo not given),–,0.81
COCc1c(C(=O)N(C)Cc2ccc(OC)c(OC)c2)cnn1-c1nccc(-c2ccco2)n1,–,0.812
COc1cccc(CC(C2CCN(C(=O)c3cc(C)ccc3C)CC2)N(C)C(=O)c2ccn(C)n2)c1 (stereo not given),–,0.843
CCCc1cc(CN(C)C(=O)CC2(c3ccccc3OC)CC(=O)N(CCCOC)C2=O)n[nH]1 (stereo not given),–,0.892
O=C(c1cnsn1)N1CCCC(N2CCN(Cc3ccc4c(c3)OCO4)CC2)C1 (stereo not given),0.936,–
Cc1nc(CCNc2nncc(-c3ccc(F)cc3)n2)sc1C,–,0.833
O=C(c1cn(CC2COc3ccccc3O2)nn1)N1CCC(Cc2ccccc2F)CC1 (stereo not given),0.582,–
CO[C@H]1[C@H](NC(=O)c2ccncc2)c2ccccc2C12CCN(C(=O)c1cccc(C)c1C)CC2,–,0.846
CCOC(=O)C1(CCCc2ccccc2)CCN(C(=O)CCc2cnccn2)CC1,0.808,–
CN(CC1CCOCC1)C(=O)c1cc(COc2cccc3cnccc23)on1,0.93,–
Cc1oc(-c2ccccc2NC(=O)c2ccccc2)nc1CNC(=O)C1CC(=O)N(CC(C)C)C1 (stereo not given),–,0.693
COCCN(Cc1ccccn1)C(Cc1ccccc1)C1CCN(C2CCCC2)CC1 (stereo not given),–,0.816
O=S(=O)(c1ccccc1C(F)(F)F)N1CCC(CO)(Cc2ccccc2Cl)CC1,-0.002,–
CN(Cc1n[nH]c2c1CCCC2)C(=O)COc1ccc(N2CCN(c3ccccn3)CC2)nn1,–,0.757
COc1cccc(-n2cc(CN(C)C(=O)CCC3(Cc4ccc(OC)cc4F)CCC(=O)N3)cn2)c1 (stereo not given),–,0.821
COc1ncccc1C(=O)NCc1cccnc1Oc1ccc(F)cc1F,0.973,–
COc1ccc(-n2ncc(C(C)NCc3ccc(OC)cc3F)c2C)cc1 (stereo not given),–,0.965
COC(=O)c1cc(CNC(=O)C2(c3ccc(Cl)cc3)CCC2)cc(NC(=O)c2ccco2)c1,–,0.929
COc1cccc(CC2(CO)CCN(Cc3csc(C(C)=O)c3)CC2)c1,0.855,–
O=C(CCC1CCN(C(=O)CN2CCC(c3ccccc3)CC2)CC1)NC1CC1,–,0.832
CCOC(=O)N1CCN(C(=O)c2ccc(N3CCC(NCCc4cnccn4)CC3)cc2)CC1,–,0.888
COc1ccccc1CCNc1nc(CN(C)C(C)c2ccon2)nc2ccccc12 (stereo not given),–,0.822
CN(CCc1ccccc1)C(=O)CC1(c2ccccc2)CC(=O)N(Cc2ccc3c(c2)OCO3)C1=O (stereo not given),–,0.001

# 2 entries from above in a different format:
Compound	bacterial growth OD600 (polymyxin B 1 µg/mL)	bacterial growth OD600 (polymyxin B 0.75 µg/mL)
Cc1ccccc1CNC(=O)c1cc(CC(C)c2ccccc2)no1 (stereo not given)	–	0.428
O=C(NCCc1cccc(Cl)c1)C1CCC(=O)N(Cc2ccc(Cl)cc2)C1 (stereo not given)	0.575	–
